In paper doi:10.1101/2020.11.05.369280 (bioRxiv, 2020):
Like-named read-outs stand apart in the source and are kept apart here. No constants are given. Whether binding was seen depends on the method and setting. Some binding calls cover weakened binding; strength is not graded here.

The chains behind the UniProt entries cited, without tags or fusion partners. Residues count along the entry.
UniProt P02769, residues 25-607: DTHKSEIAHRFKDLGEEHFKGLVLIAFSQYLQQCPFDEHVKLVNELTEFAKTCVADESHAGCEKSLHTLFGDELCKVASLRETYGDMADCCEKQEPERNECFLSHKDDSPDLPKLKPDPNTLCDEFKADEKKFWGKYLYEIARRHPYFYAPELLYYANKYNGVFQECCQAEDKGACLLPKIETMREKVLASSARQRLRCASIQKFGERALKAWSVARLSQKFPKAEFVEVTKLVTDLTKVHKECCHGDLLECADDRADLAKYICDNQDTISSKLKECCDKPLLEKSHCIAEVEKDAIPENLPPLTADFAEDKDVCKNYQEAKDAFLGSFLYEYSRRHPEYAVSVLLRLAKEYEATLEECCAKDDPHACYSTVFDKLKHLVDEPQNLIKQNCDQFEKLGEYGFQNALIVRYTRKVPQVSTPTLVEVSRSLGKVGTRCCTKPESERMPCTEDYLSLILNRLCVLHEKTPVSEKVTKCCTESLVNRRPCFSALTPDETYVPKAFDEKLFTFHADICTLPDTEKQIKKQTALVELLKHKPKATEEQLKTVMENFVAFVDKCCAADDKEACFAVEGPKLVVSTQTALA
UniProt P69783, residues 2-169: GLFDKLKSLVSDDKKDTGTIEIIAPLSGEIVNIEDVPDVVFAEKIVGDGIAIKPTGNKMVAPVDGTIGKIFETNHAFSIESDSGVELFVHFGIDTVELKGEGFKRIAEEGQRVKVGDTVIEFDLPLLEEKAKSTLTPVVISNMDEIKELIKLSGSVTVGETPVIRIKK

Tests used:
Assay in all cases: cross-linking
[1] = biological target: bovine serum albumin (bovine) (UniProt P02769)
EIIA^Glc [2] = biological target: EIIA^Glc (UniProt P69783)
EIIA^Glc [3] = biological target: EIIA^Glc (UniProt P69783); remark: listed apart in the source
EIIA^Glc [4] = biological target: EIIA^Glc (UniProt P69783); remark: listed apart in the source

With “bovine serum albumin (from UniProt P02769 25-607)” the binding [1] was “no binding (condition: at pH 3.0)”.

B1: EIIB^Glc (domain or fragment)
chain: EDATEDAKATGTSEMAPALVAAFGGKENITNLDACITRLRVSVADVSKVDQAGLKKLGAAGVVVAGSGVQAIFGTKSDNLKTEMDEYIRN
With B1 the binding (EIIA^Glc [2]) was “binds weakly”, the binding (EIIA^Glc [3]) was “binds weakly” and the binding (EIIA^Glc [4]) was “binds weakly”.
